Test results reported in PMC4726734.
These are yes or no findings as the source states them, for the method shown. Some binding calls cover weakened binding; strength is not graded here. Blank lines part the entries; values can stand above or below the binder they belong to.

Chains of the proteins cited; added tags and fusions are not shown. Lines headed by an entry give the natural chain unless they say otherwise; changes in a name come on top.
UniProt Q16254: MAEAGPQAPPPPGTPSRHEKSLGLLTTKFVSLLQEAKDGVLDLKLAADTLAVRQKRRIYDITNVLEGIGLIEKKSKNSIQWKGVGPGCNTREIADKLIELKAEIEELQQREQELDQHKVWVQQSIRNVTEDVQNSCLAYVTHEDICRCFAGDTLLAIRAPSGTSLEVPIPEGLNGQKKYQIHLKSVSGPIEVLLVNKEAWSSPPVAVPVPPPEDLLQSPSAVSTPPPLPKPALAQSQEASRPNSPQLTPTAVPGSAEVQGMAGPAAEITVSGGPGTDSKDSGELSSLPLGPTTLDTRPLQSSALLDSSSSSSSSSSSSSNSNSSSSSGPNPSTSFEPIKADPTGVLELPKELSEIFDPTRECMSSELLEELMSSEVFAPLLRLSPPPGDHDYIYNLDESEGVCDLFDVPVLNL
UniProt O00716: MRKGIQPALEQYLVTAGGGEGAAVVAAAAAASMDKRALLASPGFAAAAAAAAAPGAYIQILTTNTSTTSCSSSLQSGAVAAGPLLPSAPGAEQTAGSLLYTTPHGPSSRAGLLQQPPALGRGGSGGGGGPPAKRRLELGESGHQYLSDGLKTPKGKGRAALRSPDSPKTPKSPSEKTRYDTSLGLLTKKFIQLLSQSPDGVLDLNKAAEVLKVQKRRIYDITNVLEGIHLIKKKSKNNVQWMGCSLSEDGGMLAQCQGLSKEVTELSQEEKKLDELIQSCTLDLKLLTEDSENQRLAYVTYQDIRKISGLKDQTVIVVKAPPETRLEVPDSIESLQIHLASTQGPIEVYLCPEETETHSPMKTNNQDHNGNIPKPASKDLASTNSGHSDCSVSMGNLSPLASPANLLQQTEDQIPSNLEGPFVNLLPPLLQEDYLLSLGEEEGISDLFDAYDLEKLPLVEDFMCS

How the values were obtained:
Experiment in all cases: native gel or EMSA; nuclear extract from HDF-TERT cells (untreated or treated with IFNα or IFNγ for 24 hr) with a 32P-labeled DNA probe (E1A-ENH, Ad5 nt 271-288); composition of the DNA-protein complexes identified with specific antibodies to E2F, DP and Rb family members
[1] = target: E2F-4 (human (endogenous in HDF-TERT)), Q16254; conditions: remark: other sources report otherwise
[2] = target: E2F3 (human (endogenous in HDF-TERT)) (UniProt O00716)
[3] = target: E2F-4 (human (endogenous in HDF-TERT)) (UniProt Q16254)

binding [1]: binds
B1: p130, Q08999 1-1139 (protein)
chain: MPSGGDQSPPPPPPPPAAAASDEEEEDDGEAEDAAPPAESPTPQIQQRFDELCSRLNMDEAARAEAWDSYRSMSESYTLEGNDLHWLACALYVACRKSVPTVSKGTVEGNYVSLTRILKCSEQSLIEFFNKMKKWEDMANLPPHFRERTERLERNFTVSAVIFKKYEPIFQDIFKYPQEEQPRQQRGRKQRRQPCTVSEIFHFCWVLFIYAKGNFPMISDDLVNSYHLLLCALDLVYGNALQCSNRKELVNPNFKGLSEDFHAKDSKPSSDPPCIIEKLCSLHDGLVLEAKGIKEHFWKPYIRKLYEKKLLKGKEENLTGFLEPGNFGESFKAINKAYEEYVLSVGNLDERIFLGEDAEEEIGTLSRCLNAGSGTETAERVQMKNILQQHFDKSKALRISTPLTGVRYIKENSPCVTPVSTATHSLSRLHTMLTGLRNAPSEKLEQILRTCSRDPTQAIANRLKEMFEIYSQHFQPDEDFSNCAKEIASKHFRFAEMLYYKVLESVIEQEQKRLGDMDLSGILEQDAFHRSLLACCLEVVTFSYKPPGNFPFITEIFDVPLYHFYKVIEVFIRAEDGLCREVVKHLNQIEEQILDHLAWKPESPLWEKIRDNENRVPTCEEVMPPQNLERADEICIAGSPLTPRRVTEVRADTGGLGRSITSPTTLYDRYSSPPASTTRRRLFVENDSPSDGGTPGRMPPQPLVNAVPVQNVSGETVSVTPVPGQTLVTMATATVTANNGQTVTIPVQGIANENGGITFFPVQVNVGGQAQAVTGSIQPLSAQALAGSLSSQQVTGTTLQVPGQVAIQQISPGGQQQKQGQSVTSSSNRPRKTSSLSLFFRKVYHLAAVRLRDLCAKLDISDELRKKIWTCFEFSIIQCPELMMDRHLDQLLMCAIYVMAKVTKEDKSFQNIMRCYRTQPQARSQVYRSVLIKGKRKRRNSGSSDSRSHQNSPTELNKDRTSRDSSPVMRSSSTLPVPQPSSAPPTPTRLTGANSDMEEEERGDLIQFYNNIYIKQIKTFAMKYSQANMDAPPLSPYPFVRTGSPRRIQLSQNHPVYISPHKNETMLSPREKIFYYFSNSPSKRLREINSMIRTGETPTKKRGILLEDGSESPAKRICPENHSALLRRLQDVANDRGSH

binding [2]: binds
B2: Rb (protein, UniProt P06400 1-928)
chain: MPPKTPRKTAATAAAAAAEPPAPPPPPPPEEDPEQDSGPEDLPLVRLEFEETEEPDFTALCQKLKIPDHVRERAWLTWEKVSSVDGVLGGYIQKKKELWGICIFIAAVDLDEMSFTFTELQKNIEISVHKFFNLLKEIDTSTKVDNAMSRLLKKYDVLFALFSKLERTCELIYLTQPSSSISTEINSALVLKVSWITFLLAKGEVLQMEDDLVISFQLMLCVLDYFIKLSPPMLLKEPYKTAVIPINGSPRTPRRGQNRSARIAKQLENDTRIIEVLCKEHECNIDEVKNVYFKNFIPFMNSLGLVTSNGLPEVENLSKRYEEIYLKNKDLDARLFLDHDKTLQTDSIDSFETQRTPRKSNLDEEVNVIPPHTPVRTVMNTIQQLMMILNSASDQPSENLISYFNNCTVNPKESILKRVKDIGYIFKEKFAKAVGQGCVEIGSQRYKLGVRLYYRVMESMLKSEEERLSIQNFSKLLNDNIFHMSLLACALEVVMATYSRSTSQNLDSGTDLSFPWILNVLNLKAFDFYKVIESFIKAEGNLTREMIKHLERCEHRIMESLAWLSDSPLFDLIKQSKDREGPTDHLESACPLNLPLQNNHTAADMYLSPVRSPKKKGSTTRVNSTANAETQATSAFQTQKPLKSTSLSLFYKKVYRLAYLRLNTLCERLLSEHPELEHIIWTLFQHTLQNEYELMRDRHLDQIMMCSMYGICKVKNIDLKFKIIVTAYKDLPHAVQETFKRVLIKEEEYDSIIVFYNSVFMQRLKTNILQYASTRPPTLSPIPHIPRSPYKFPSSPLRIPGGNIYISPLKSPYKISEGLPTPTKMTPRSRILVSIGESFGTSEKFQKINQMVCNSDRVLKRSAEGSNPPKPLKKLRFDIEGSDEADGSKHLPGESKFQQKLAEMTSTRTRMQKQKMNDSMDTSNKEEK

binding [3]: binds
B3: p107 (protein, UniProt P28749 1-1068)
chain: MFEDKPHAEGAAVVAAAGEALQALCQELNLDEGSAAEALDDFTAIRGNYSLEGEVTHWLACSLYVACRKSIIPTVGKGIMEGNCVSLTRILRSAKLSLIQFFSKMKKWMDMSNLPQEFRERIERLERNFEVSTVIFKKYEPIFLDIFQNPYEEPPKLPRSRKQRRIPCSVKDLFNFCWTLFVYTKGNFRMIGDDLVNSYHLLLCCLDLIFANAIMCPNRQDLLNPSFKGLPSDFHTADFTASEEPPCIIAVLCELHDGLLVEAKGIKEHYFKPYISKLFDRKILKGECLLDLSSFTDNSKAVNKEYEEYVLTVGDFDERIFLGADAEEEIGTPRKFTRDTPLGKLTAQANVEYNLQQHFEKKRSFAPSTPLTGRRYLREKEAVITPVASATQSVSRLQSIVAGLKNAPSDQLINIFESCVRNPVENIMKILKGIGETFCQHYTQSTDEQPGSHIDFAVNRLKLAEILYYKILETVMVQETRRLHGMDMSVLLEQDIFHRSLMACCLEIVLFAYSSPRTFPWIIEVLNLQPFYFYKVIEVVIRSEEGLSRDMVKHLNSIEEQILESLAWSHDSALWEALQVSANKVPTCEEVIFPNNFETGNGGNVQGHLPLMPMSPLMHPRVKEVRTDSGSLRRDMQPLSPISVHERYSSPTAGSAKRRLFGEDPPKEMLMDKIITEGTKLKIAPSSSITAENVSILPGQTLLTMATAPVTGTTGHKVTIPLHGVANDAGEITLIPLSMNTNQESKVKSPVSLTAHSLIGASPKQTNLTKAQEVHSTGINRPKRTGSLALFYRKVYHLASVRLRDLCLKLDVSNELRRKIWTCFEFTLVHCPDLMKDRHLDQLLLCAFYIMAKVTKEERTFQEIMKSYRNQPQANSHVYRSVLLKSIPREVVAYNKNINDDFEMIDCDLEDATKTPDCSSGPVKEERGDLIKFYNTIYVGRVKSFALKYDLANQDHMMDAPPLSPFPHIKQQPGSPRRISQQHSIYISPHKNGSGLTPRSALLYKFNGSPSKSLKDINNMIRQGEQRTKKRVIAIDSDAESPAKRVCQENDDVLLKRLQDVVSERANH
